# From PubChem BioAssay AID2685 (National Center for Advancing Translational Sciences (NCATS), 2010)
# The other results are listed elsewhere or left out. These are further read-outs of the screen, such as a control signal, another cell line or another target. No call is given for them. Compounds called inactive in the main read-out are mostly missing here. Words in brackets tell the shape of the fitted curve; partial curves, single points and poor fits give uncertain potencies.
# Assay: qHTS Assay for Lipid Storage Modulators in Drosophila S3 Cells;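 on cell number change: cells counted by Cell Tracker Red CMTPX staining in the red channel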
# Settings: BODIPY lipid droplet fluorescence, 18-24 h; for cell number change: measured here: cell count max response, cells fed with added oleic acid
# Outline: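 Drosophila S3 cells loaded with oleic acid (400 uM, as added) and compounds at several concentrations; lipid droplets imaged by 488-nm laser-scanning cytometry, 500–530 nm intensity and object ratio to cell channel. Percent activity normalized to 20 uM Triacsin C.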
# [1] = measured here: cell number channel AC50, cells fed with added oleic acid
# [2] = measured here: lipid fluorescence (Fed channel) AC50, cells fed with added oleic acid
SMILES,cell number change [%],AC50 [1],AC50 [2]
Cc1ccc(CN(C#N)c2nc(C)cc(C)n2)cc1,-2.26,–,–
Cn1ncc(Cl)c1C(=O)N1CCN(c2cccc(Cl)c2)CC1,–,"6.51 µM [rising, single point]","18.4 µM [rising, partial curve]"
Cc1cc(N2CCCC2)ccc1/C=N/n1cnnc1,1.13,–,"14.6 µM [rising, single point]"
Cn1cnc([N+](=O)[O-])c1S(=O)(=O)c1ccc(Cl)cc1,-71.7,"18.4 µM [falling, single point]","16.4 µM [falling, partial curve]"
COc1cc(-c2nn3c(-c4cccc(C)c4)nnc3s2)cc(OC)c1OC,10.3,–,"0.731 µM [rising, full curve]"
N#Cc1cc(C(=O)c2cc(Br)ccc2O)cn(C2CCCCC2)c1=O,3.68,–,"32.6 µM [rising, partial curve, poor fit]"
O=C(NCCCCc1ccccc1)C1CC(c2ccc([N+](=O)[O-])cc2)=NO1 (centres undefined),-0.829,–,"23.1 µM [rising, single point]"
COC(=O)c1ccc(NC(=O)c2cc(-c3ccccn3)nc3ccccc23)cc1,–,–,"29.1 µM [falling, single point]"
O=[N+]([O-])c1cccc(CN2CCN(Cc3ccco3)CC2)c1,0.901,–,"23.1 µM [falling, single point]"
c1ccc(-c2ccccc2-c2nc(-c3cccnc3)no2)cc1,-13.6,–,–
CC(C)CN(C(=O)COC(=O)c1c2c(nc3ccccc13)CCC2)c1c(N)n(Cc2ccccc2)c(=O)[nH]c1=O,-57.8,"9.2 µM [falling, partial curve]","7.31 µM [falling, partial curve]"
CN(C1CCCCC1)S(=O)(=O)c1ccc(NC(=O)c2ccco2)cc1,-3.28,"2.06 µM [rising, single point]","6.51 µM [rising, single point]"
CC(C)(C)OC(=O)n1cc(C(=O)c2ccccc2O)cn1,4.05,–,"14.6 µM [rising, partial curve]"
CCN(CC)S(=O)(=O)c1ccc2[nH]cc(C(=O)NCCC3=CCCCC3)c(=O)c2c1,-31.1,"11.6 µM [falling, partial curve]","8.2 µM [falling, partial curve]"
CC(=O)NC1C(Oc2ccc(C=O)cc2)OC(COC(C)=O)C(OC(C)=O)C1OC(C)=O (centres undefined),-28.2,–,–
COc1ccc(CCNS(=O)(=O)c2ccc3c(c2)OCCO3)cc1,5.4,–,"6.51 µM [falling, single point]"
O=c1[nH]c(CN2CCN(c3ccc(O)cc3)CC2)nc2scc(-c3ccc(Cl)cc3)c12,82.2,"16.4 µM [rising, partial curve]","20.6 µM [rising, partial curve]"
Cc1c(NC(=O)N(C)c2ccccc2)c(=O)n(-c2ccccc2)n1C,-10.1,–,"1.16 µM [falling, full curve, poor fit]"
COc1ccc(CNC(=O)C2CCC(=O)N(CC3CCCCC3)C2)cc1 (centres undefined),-14.1,–,–

SMILES,cell number change [%],AC50 [1],AC50 [2]
C=CCn1c(CC(=O)OC)csc1=Nc1ccc(C(C)=O)cc1,79.1,"5.8 µM [rising, full curve]","5.17 µM [rising, full curve, poor fit]"
CC1(C)N=C(SCC(=O)Nc2ccc(Cl)cc2Cl)C(c2ccccc2)=N1,18.8,–,–
CCN1C(=O)[C@@H]2[C@@H](c3ccc(-c4ccc(F)cc4)c(OC)c3)N3CCCC[C@@]3(C(=O)OC)[C@@H]2C1=O,-13.1,–,"29.1 µM [falling, single point]"
CCOc1ccc2nc(NC(=O)c3cccc(-c4cc5ccccc5oc4=O)c3)sc2c1,3.34,–,"0.731 µM [rising, single point]"
Cc1ccc(S(=O)(=O)N2CCCOC2)cc1,–,–,"0.231 µM [falling, partial curve, poor fit]"
CC(C)(C)c1ccc(OCCC(=O)OCC(=O)NC2CC2)cc1,-9.61,"0.82 µM [falling, single point]","0.731 µM [falling, full curve, poor fit]"
CCn1c(=O)c2sccc2n2c(CCCC(=O)N3CCN(c4ccccn4)CC3)nnc12,–,–,"6.51 µM [falling, single point]"
COC(=O)CN1C(=O)C(O)(CC(=O)c2ccc(C)o2)c2ccccc21 (centres undefined),3.91,–,"29.1 µM [falling, partial curve, poor fit]"
CC1CC1C(=O)OCc1cc(=O)n2cc(Br)ccc2n1 (centres undefined),25.4,–,–
COc1ccccc1CNC(=O)CN(c1ccc(C)cc1)S(=O)(=O)c1c(C)nn(C)c1C,-0.285,–,"2.06 µM [rising, full curve, poor fit]"
CC1CCCCC1NC(=O)/C(C#N)=C/C=C/c1ccccc1[N+](=O)[O-] (centres undefined),-30.4,–,–
COC(=O)c1ccc(OCC(O)CN2C(=O)NC(C)(C)C2=O)cc1 (centres undefined),9.73,–,"1.3 µM [falling, partial curve]"
O=C(NCCOc1ccccc1)c1ccc2n[nH]nc2c1,19,–,"2.91 µM [rising, single point]"
S=C(Nc1ccccc1)N1CCC(C2CCN(C(=S)Nc3ccccc3)CC2)CC1,–,–,"4.11 µM [rising, partial curve, poor fit]"
O=C(/C=C/c1ccc([N+](=O)[O-])cc1)NCc1cccnc1,-18.8,–,–
Cc1ccc(C(=O)Nc2nc(=O)n(C(=O)c3ccccc3C)s2)cc1,-81,"16.4 µM [falling, partial curve, poor fit]",–
c1ccc(NNC2=NCCCCC2)cc1,11.7,"0.0164 µM [rising, full curve, poor fit]","6.51 µM [rising, single point]"
O=c1c(-c2ccc(Br)cc2)coc2c(CN3CCOCC3)c(O)ccc12,–,–,"2.59 µM [rising, single point]"
CC(C)c1ccc(NC(=O)C2C3C=CC4(CN(Cc5cccnc5)C(=O)C24)O3)cc1 (centres undefined),-12.6,"4.61 µM [falling, single point]","0.116 µM [falling, full curve, poor fit]"

# 5 structures from above, ordered by count of non-hydrogen atoms, largest number first:
SMILES,cell number change [%],AC50 [1],AC50 [2]
CCN1C(=O)[C@@H]2[C@@H](c3ccc(-c4ccc(F)cc4)c(OC)c3)N3CCCC[C@@]3(C(=O)OC)[C@@H]2C1=O,-13.1,–,"29.1 µM [falling, single point]"
S=C(Nc1ccccc1)N1CCC(C2CCN(C(=S)Nc3ccccc3)CC2)CC1,–,–,"4.11 µM [rising, partial curve, poor fit]"
COC(=O)CN1C(=O)C(O)(CC(=O)c2ccc(C)o2)c2ccccc21 (centres undefined),3.91,–,"29.1 µM [falling, partial curve, poor fit]"
Cn1ncc(Cl)c1C(=O)N1CCN(c2cccc(Cl)c2)CC1,–,"6.51 µM [rising, single point]","18.4 µM [rising, partial curve]"
CC(C)(C)OC(=O)n1cc(C(=O)c2ccccc2O)cn1,4.05,–,"14.6 µM [rising, partial curve]"

# Continuation:

SMILES,cell number change [%],AC50 [1],AC50 [2]
CC(=O)NC1=NN(C(C)=O)C(C)(c2ccc(Br)cc2)S1 (centres undefined),-62.8,"5.8 µM [falling, partial curve]","18.4 µM [falling, partial curve]"
CCCc1cc(=O)[nH]c(SCC(=O)N(CC)C2CCS(=O)(=O)C2)n1 (centres undefined),-14.6,–,"29.1 µM [falling, single point]"
CC(C)Cn1c(-c2ccc(Cl)cc2)cnc1SCC(=O)N1CCOCC1,-14.2,"2.06 µM [falling, partial curve, poor fit]","2.06 µM [falling, partial curve, poor fit]"
Cc1ccc2[nH]c(=O)c(CC=C(Cl)Cl)c(C)c2c1,38.2,"5.17 µM [rising, partial curve]","5.8 µM [rising, full curve]"
COCCOC(=O)C1=C(C)NC(=S)NC1c1cccs1 (centres undefined),18.9,–,"29.1 µM [rising, single point]"
CN1CCc2cc3c(c4c2C1CC41CCC(=NO)CC1)OCO3 (centres undefined),-7.42,–,–
Cc1cc([N+](=O)[O-])ccc1-c1ccc(/C=N/NC(=O)c2ccc(Br)o2)o1,102,"9.2 µM [rising, partial curve]","16.4 µM [falling, single point]"
COC(=O)c1sc(NC(=O)CSc2nnnn2C)nc1C,10.8,–,–
COc1ccc(N(C(=O)CNC(=O)c2ccco2)C(C(=O)NCC2CCCO2)c2ccccc2)c(OC)c1 (centres undefined),-9.21,–,–
Oc1ccccc1CNn1cnnc1,7.47,–,"0.00461 µM [rising, full curve, poor fit]"
Cc1ccc(S(=O)(=O)NC(C(=O)N2CCOCCOCCOCCOCC2)c2ccccc2)cc1 (centres undefined),-27.3,"2.06 µM [falling, full curve, poor fit]","2.06 µM [falling, full curve]"
COc1ccc(CCNS(=O)(=O)c2ccc(Cl)cc2)cc1OC,–,–,"0.58 µM [falling, single point]"
CC(C)OC(=O)C1C(=O)CC(C)(O)C(C(=O)OC(C)C)C1c1ccc([N+](=O)[O-])cc1 (centres undefined),17.5,–,"6.51 µM [rising, partial curve, poor fit]"
O=C(Nc1ccc2c(c1)OCO2)C1CC(c2ccc(F)cc2)=NO1 (centres undefined),5.65,"5.17 µM [rising, partial curve]","0.58 µM [rising, single point]"
COc1ccc(C2c3ccc(O)cc3Oc3ncn4nc(-c5ccccn5)nc4c32)cc1 (centres undefined),-55.4,"25.9 µM [falling, partial curve, poor fit]","16.4 µM [falling, single point]"
CCOc1ccc(C(C)NC(=S)NC2CCCCC2)cc1 (centres undefined),-18.1,"6.51 µM [falling, single point]","3.26 µM [falling, single point]"
COc1cc(C(=O)NCC(c2ccc(F)cc2)N2CCOCC2)ccc1OCc1ccccc1Cl (centres undefined),26.5,"1.84 µM [rising, partial curve]","0.164 µM [rising, full curve]"
FC(F)(F)c1cccc(OCCOCCn2cncn2)c1,–,–,"0.58 µM [rising, single point]"
CC1(C)CC(=O)C2=C(C1)N(Cc1ccco1)C(=O)C2(O)C(F)(F)F (centres undefined),-1.43,–,"0.0651 µM [falling, full curve, poor fit]"
